These are yes or no findings as the source states them, for the method shown. For some of these results: Binding seen in cells or lysates may run through a third protein. Some entries that bind do so weakly or less than the wild type. Where a sequence is shown, tags or fusion partners need not be part of it. Values belong to the binder of their own block, whether it stands above or below them.
Key:
[1] = biological target: T1, KOR1C, transmembrane domain plus the C-terminal part of KOR1 (AA 70 to 621), MbYTH fusion (Arabidopsis thaliana) (UniProt Q38890); test: two-hybrid; split-ubiquitin membrane-based yeast two-hybrid (MbYTH) in S. cerevisiae NMY51; bait fused to Cub-TF, prey to NubG; 100 colonies of each combination spotted on selective medium with 3-AT, 30°C, three days, grown spots counted; called 'in vitro' by the paper
T1 sequence: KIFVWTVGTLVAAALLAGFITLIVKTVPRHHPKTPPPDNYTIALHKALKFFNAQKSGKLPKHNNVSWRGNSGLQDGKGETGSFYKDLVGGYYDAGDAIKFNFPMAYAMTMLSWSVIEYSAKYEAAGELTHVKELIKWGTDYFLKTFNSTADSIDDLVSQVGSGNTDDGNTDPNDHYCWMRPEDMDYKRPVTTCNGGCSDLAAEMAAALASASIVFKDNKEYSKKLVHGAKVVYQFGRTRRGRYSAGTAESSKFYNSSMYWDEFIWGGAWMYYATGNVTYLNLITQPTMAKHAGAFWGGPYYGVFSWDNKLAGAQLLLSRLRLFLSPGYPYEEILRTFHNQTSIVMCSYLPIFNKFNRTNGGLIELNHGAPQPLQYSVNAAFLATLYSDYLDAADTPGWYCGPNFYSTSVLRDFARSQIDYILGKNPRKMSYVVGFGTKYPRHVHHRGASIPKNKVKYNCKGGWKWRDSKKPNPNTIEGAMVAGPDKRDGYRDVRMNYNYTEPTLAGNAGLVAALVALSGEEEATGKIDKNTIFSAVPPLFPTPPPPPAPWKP

[2] = biological target: T2, KOR1TMD, only the transmembrane domain of KOR1 (AA 70 to 94), MbYTH fusion (Arabidopsis thaliana) (UniProt Q38890); test: as above
T2 sequence: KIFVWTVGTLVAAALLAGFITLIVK

[3] = biological target: T3, KORRIGAN1 (KOR1), complete protein (AA 1 to 621), MbYTH fusion (Arabidopsis thaliana) (UniProt Q38890); test: as above
T3 sequence: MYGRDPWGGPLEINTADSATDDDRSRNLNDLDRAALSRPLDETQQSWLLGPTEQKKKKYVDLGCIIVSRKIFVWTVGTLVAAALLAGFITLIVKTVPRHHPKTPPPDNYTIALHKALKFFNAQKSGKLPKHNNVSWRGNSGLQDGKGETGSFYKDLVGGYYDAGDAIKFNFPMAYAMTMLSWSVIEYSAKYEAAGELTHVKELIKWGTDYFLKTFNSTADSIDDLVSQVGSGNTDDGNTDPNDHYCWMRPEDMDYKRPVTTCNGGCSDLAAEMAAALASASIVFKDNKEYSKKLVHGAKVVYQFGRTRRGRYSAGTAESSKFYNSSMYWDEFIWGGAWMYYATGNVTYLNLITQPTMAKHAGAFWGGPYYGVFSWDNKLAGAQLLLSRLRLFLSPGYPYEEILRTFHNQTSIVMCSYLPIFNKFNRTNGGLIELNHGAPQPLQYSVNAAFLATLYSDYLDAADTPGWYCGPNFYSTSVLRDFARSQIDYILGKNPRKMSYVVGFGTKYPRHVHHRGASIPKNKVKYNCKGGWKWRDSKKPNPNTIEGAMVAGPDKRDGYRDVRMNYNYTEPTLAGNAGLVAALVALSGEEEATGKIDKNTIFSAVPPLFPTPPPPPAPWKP

[4] = biological target: T4, KOR1N, N-terminal part of KOR1 with the transmembrane domain (AA 1 to 94), MbYTH fusion (Arabidopsis thaliana) (UniProt Q38890); test: as above
T4 sequence: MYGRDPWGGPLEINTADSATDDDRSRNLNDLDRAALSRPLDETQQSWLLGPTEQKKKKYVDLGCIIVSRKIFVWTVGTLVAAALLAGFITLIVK

[5] = biological target: T5, CESA6 (cellulose synthase, primary cell wall), MbYTH fusion (Arabidopsis thaliana), Q94JQ6; test: as above; conditions: remark: other sources report otherwise
T5 chain: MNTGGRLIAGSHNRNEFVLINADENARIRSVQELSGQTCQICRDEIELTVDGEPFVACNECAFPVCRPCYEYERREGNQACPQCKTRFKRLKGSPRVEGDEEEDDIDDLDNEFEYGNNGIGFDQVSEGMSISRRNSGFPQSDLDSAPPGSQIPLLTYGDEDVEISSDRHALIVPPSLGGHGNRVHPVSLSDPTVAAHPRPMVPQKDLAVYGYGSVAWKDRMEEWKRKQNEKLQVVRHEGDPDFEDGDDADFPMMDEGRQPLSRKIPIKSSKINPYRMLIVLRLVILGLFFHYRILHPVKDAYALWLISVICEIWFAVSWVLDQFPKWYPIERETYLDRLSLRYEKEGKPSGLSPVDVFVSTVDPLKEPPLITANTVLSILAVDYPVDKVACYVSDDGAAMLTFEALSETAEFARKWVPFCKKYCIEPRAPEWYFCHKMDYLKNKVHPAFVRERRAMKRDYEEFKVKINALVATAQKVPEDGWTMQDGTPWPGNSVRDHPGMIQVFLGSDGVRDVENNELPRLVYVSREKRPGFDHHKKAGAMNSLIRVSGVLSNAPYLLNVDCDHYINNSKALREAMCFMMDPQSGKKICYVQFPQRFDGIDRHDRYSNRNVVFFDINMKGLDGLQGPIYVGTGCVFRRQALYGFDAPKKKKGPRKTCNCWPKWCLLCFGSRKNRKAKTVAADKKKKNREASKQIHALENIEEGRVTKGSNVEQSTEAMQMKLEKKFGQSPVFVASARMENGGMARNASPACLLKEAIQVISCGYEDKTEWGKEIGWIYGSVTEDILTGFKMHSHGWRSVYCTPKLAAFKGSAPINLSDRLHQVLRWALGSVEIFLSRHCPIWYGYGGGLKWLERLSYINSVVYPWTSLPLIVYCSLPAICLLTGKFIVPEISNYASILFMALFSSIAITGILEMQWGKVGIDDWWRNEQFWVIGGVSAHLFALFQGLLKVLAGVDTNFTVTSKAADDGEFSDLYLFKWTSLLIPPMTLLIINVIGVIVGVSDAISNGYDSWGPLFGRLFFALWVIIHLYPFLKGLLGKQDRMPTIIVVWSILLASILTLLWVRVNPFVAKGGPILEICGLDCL

[6] = biological target: aquaporin PIP2-1, split-YFP (BiFC) fusion, positive control (UniProt P43286); test: split reporter; BiFC: Y/N and Y/C fragments of YFP each linked to the N-terminus of the proteins, transiently expressed in leaves of 3-week-old N. benthamiana; YFP fluorescence by confocal microscopy 3 days after infiltration

B2: CESA7 (cellulose synthase, secondary cell wall), MbYTH fusion (protein, UniProt Q9SWW6 1-1026)
chain: MEASAGLVAGSHNRNELVVIHNHEEPKPLKNLDGQFCEICGDQIGLTVEGDLFVACNECGFPACRPCYEYERREGTQNCPQCKTRYKRLRGSPRVEGDEDEEDIDDIEYEFNIEHEQDKHKHSAEAMLYGKMSYGRGPEDDENGRFPPVIAGGHSGEFPVGGGYGNGEHGLHKRVHPYPSSEAGSEGGWRERMDDWKLQHGNLGPEPDDDPEMGLIDEARQPLSRKVPIASSKINPYRMVIVARLVILAVFLRYRLLNPVHDALGLWLTSVICEIWFAVSWILDQFPKWFPIERETYLDRLSLRYEREGEPNMLAPVDVFVSTVDPLKEPPLVTSNTVLSILAMDYPVEKISCYVSDDGASMLTFESLSETAEFARKWVPFCKKFSIEPRAPEMYFTLKVDYLQDKVHPTFVKERRAMKREYEEFKVRINAQVAKASKVPLEGWIMQDGTPWPGNNTKDHPGMIQVFLGHSGGFDVEGHELPRLVYVSREKRPGFQHHKKAGAMNALVRVAGVLTNAPFMLNLDCDHYVNNSKAVREAMCFLMDPQIGKKVCYVQFPQRFDGIDTNDRYANRNTVFFDINMKGLDGIQGPVYVGTGCVFKRQALYGYEPPKGPKRPKMISCGCCPCFGRRRKNKKFSKNDMNGDVAALGGAEGDKEHLMSEMNFEKTFGQSSIFVTSTLMEEGGVPPSSSPAVLLKEAIHVISCGYEDKTEWGTELGWIYGSITEDILTGFKMHCRGWRSIYCMPKRPAFKGSAPINLSDRLNQVLRWALGSVEIFFSRHSPLWYGYKGGKLKWLERFAYANTTIYPFTSIPLLAYCILPAICLLTDKFIMPPISTFASLFFISLFMSIIVTGILELRWSGVSIEEWWRNEQFWVIGGISAHLFAVVQGLLKILAGIDTNFTVTSKATDDDDFGELYAFKWTTLLIPPTTVLIINIVGVVAGISDAINNGYQSWGPLFGKLFFSFWVIVHLYPFLKGLMGRQNRTPTIVVIWSVLLASIFSLLWVRIDPFVLKTKGPDTSKCGINC
binding [1]: no binding
binding [2]: no binding
binding [3]: no binding
binding [4]: no binding

B4: aquaporin PIP2-1, split-YFP (BiFC) fusion, positive control (protein, UniProt P43286 1-287)
chain: MAKDVEAVPGEGFQTRDYQDPPPAPFIDGAELKKWSFYRAVIAEFVATLLFLYITVLTVIGYKIQSDTDAGGVDCGGVGILGIAWAFGGMIFILVYCTAGISGGHINPAVTFGLFLARKVSLPRALLYIIAQCLGAICGVGFVKAFQSSYYTRYGGGANSLADGYSTGTGLAAEIIGTFVLVYTVFSATDPKRSARDSHVPVLAPLPIGFAVFMVHLATIPITGTGINPARSFGAAVIYNKSKPWDDHWIFWVGPFIGAAIAAFYHQFVLRASGSKSLGSFRSAANV
binding [6]: binds

Continued, values first:

binding [1]: binds
binding [2]: binds
binding [3]: binds
binding [4]: binds
B1: CESA8 (cellulose synthase, secondary cell wall), MbYTH fusion (protein, UniProt Q8LPK5 1-985)
chain: MMESRSPICNTCGEEIGVKSNGEFFVACHECSFPICKACLEYEFKEGRRICLRCGNPYDENVFDDVETKTSKTQSIVPTQTNNTSQDSGIHARHISTVSTIDSELNDEYGNPIWKNRVESWKDKKDKKSKKKKKDPKATKAEQHEAQIPTQQHMEDTPPNTESGATDVLSVVIPIPRTKITSYRIVIIMRLIILALFFNYRITHPVDSAYGLWLTSVICEIWFAVSWVLDQFPKWSPINRETYIDRLSARFEREGEQSQLAAVDFFVSTVDPLKEPPLITANTVLSILALDYPVDKVSCYVSDDGAAMLSFESLVETADFARKWVPFCKKYSIEPRAPEFYFSLKIDYLRDKVQPSFVKERRAMKRDYEEFKIRMNALVAKAQKTPEEGWTMQDGTSWPGNNTRDHPGMIQVFLGYSGARDIEGNELPRLVYVSREKRPGYQHHKKAGAENALVRVSAVLTNAPFILNLDCDHYVNNSKAVREAMCFLMDPVVGQDVCFVQFPQRFDGIDKSDRYANRNIVFFDVNMRGLDGIQGPVYVGTGTVFRRQALYGYSPPSKPRILPQSSSSSCCCLTKKKQPQDPSEIYKDAKREELDAAIFNLGDLDNYDEYDRSMLISQTSFEKTFGLSTVFIESTLMENGGVPDSVNPSTLIKEAIHVISCGYEEKTEWGKEIGWIYGSITEDILTGFKMHCRGWRSIYCMPLRPAFKGSAPINLSDRLHQVLRWALGSVEIFLSRHCPLWYGCSGGRLKLLQRLAYINTIVYPFTSLPLVAYCTLPAICLLTGKFIIPTLSNLASMLFLGLFISIILTSVLELRWSGVSIEDLWRNEQFWVIGGVSAHLFAVFQGFLKMLAGLDTNFTVTSKTADDLEFGELYIVKWTTLLIPPTSLLIINLVGVVAGFSDALNKGYEAWGPLFGKVFFAFWVILHLYPFLKGLMGRQNRTPTIVILWSILLASVFSLVWVRINPFVSKTDTTSLSLNCLLIDC

binding [5]: binds
B3: KORRIGAN1 (KOR1), complete protein (AA 1 to 621), MbYTH fusion, Q38890 1-621 (protein)
chain: T3 sequence
